Among the data in article PMC11212232 are binding values, retold here.

The chains behind the UniProt entries cited, without tags or fusion partners.
UniProt Q9NYB9: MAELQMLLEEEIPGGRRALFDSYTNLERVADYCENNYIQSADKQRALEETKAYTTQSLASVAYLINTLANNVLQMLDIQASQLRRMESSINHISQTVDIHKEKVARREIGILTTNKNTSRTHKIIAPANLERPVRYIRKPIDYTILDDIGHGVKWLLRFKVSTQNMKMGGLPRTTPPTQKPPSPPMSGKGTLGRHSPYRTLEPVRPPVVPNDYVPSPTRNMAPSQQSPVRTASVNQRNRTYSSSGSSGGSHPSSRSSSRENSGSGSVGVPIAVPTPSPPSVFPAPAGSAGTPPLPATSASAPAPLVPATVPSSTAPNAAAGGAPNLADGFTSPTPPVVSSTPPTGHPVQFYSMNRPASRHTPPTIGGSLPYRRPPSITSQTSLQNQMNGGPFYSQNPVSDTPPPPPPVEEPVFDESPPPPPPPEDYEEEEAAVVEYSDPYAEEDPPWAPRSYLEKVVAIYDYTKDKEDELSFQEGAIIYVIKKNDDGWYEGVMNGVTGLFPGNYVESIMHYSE

These are yes or no findings as the source states them, for the method shown. In cells and extracts the contact can be indirect. Some entries that bind do so weakly or less than the wild type.

This assay concerns the target ABI2, natural (endogenous) form in HEK293T cells (human (endogenous in HEK293T)) (UniProt Q9NYB9). Kind of assay: co-IP; natural (endogenous) ABI2 and CBLC in HEK293T lysate; antibody overnight at 4 C, protein A/G magnetic beads 4 h at 4 C, western blotting. In general terms: In western blotting, separated proteins are transferred to a membrane and probed.

B1: CBLC E3 ligase, natural (endogenous) form in HEK293T cells (enzyme, UniProt Q9ULV8 1-474)
chain: MALAVAPWGRQWEEARALGRAVRMLQRLEEQCVDPRLSVSPPSLRDLLPRTAQLLREVAHSRRAAGGGGPGGPGGSGDFLLIYLANLEAKSRQVAALLPPRGRRSANDELFRAGSRLRRQLAKLAIIFSHMHAELHALFPGGKYCGHMYQLTKAPAHTFWRESCGARCVLPWAEFESLLGTCHPVEPGCTALALRTTIDLTCSGHVSIFEFDVFTRLFQPWPTLLKNWQLLAVNHPGYMAFLTYDEVQERLQACRDKPGSYIFRPSCTRLGQWAIGYVSSDGSILQTIPANKPLSQVLLEGQKDGFYLYPDGKTHNPDLTELGQAEPQQRIHVSEEQLQLYWAMDSTFELCKICAESNKDVKIEPCGHLLCSCCLAAWQHSDSQTCPFCRCEIKGWEAVSIYQFHGQATAEDSGNSSDQEGRELELGQVPLSAPPLPPRPDLPPRKPRNAQPKVRLLKGNSPPAALGPQDPAPA
As for B1, the binding result is recorded as “binds”.
